PMC11651612

T1: Cdc3-mCherry (C. neoformans) (UniProt J9VUF2)
T1 sequence: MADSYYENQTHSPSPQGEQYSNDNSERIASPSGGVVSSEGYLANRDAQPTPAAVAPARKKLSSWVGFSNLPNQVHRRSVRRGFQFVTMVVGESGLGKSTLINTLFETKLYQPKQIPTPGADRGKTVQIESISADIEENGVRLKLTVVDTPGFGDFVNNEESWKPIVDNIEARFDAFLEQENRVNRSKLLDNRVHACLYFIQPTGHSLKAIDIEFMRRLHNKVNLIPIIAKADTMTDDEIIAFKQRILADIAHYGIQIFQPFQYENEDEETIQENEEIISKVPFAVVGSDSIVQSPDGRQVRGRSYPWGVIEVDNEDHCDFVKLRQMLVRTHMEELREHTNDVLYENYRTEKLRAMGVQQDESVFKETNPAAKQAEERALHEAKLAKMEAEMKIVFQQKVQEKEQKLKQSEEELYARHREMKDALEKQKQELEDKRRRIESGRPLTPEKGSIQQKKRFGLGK

B1: Cystathionine beta-synthase (protein, UniProt J9VM44 1-398)
chain: MSNSTTQPQHHWQGVLSSALDAVGHTPLIRLDRIAAEEGVKCNLLGKCEFFSAGGSVKDRIAKRMIEHAEKSGQLIPGKSVVIEPTSGNTGIGLALACALKGYKCIITLPAKMSLEKEVMLRALGAEIVRTPTEAAFDSPESHIGVARTLQQAIPDAVILDQYSNPNNPLSHYFGTYEEIMYALKTSNLPRKDMTLLVAGAGTGGTITGLARAIRDSEAHIYPSDSDCSNLSNGKSNGLYASRALILAVDPVGSILGGGEPGNYEVEGIGYDFFPDVLDREPQLIDEWLKTTDDESFEATKRLIKREGLFVGGSSGSALAGALRYLQSPAGRHIAEDPEANVVILFPDGVRNYMSKPWFLTENNAQEGWELRSKIKEAIGRDLGDVHGGRAINNVNRH
B2: NADH-ubiquinone oxidoreductase 21.3 kDa subunit (protein, UniProt J9W086 1-216)
chain: MARPTALLRNAANAAKPKPMSADHTKYHVAPTGFWKKFRDTVVVNPEISSGLPIPTENRYPQPASRPETYATPATKASDPAFNPYWKRDARRSYPQTSVITQSHLSTLLLSSPALASLPSPETAVETKWESSGIAPASPPSDAQQVVPASKVPALADVLQKLPEGKAYLGGGLTTGQGEGLPPVPPPAQRNKKWVPKAGEPVPHGKYDYFPMYTVV
B3: Protein CASP (protein, UniProt J9VZ01 1-673)
chain: MAEQNFSAALATWKEINLSELQKNLDTTAVELVDNQKENLVGRKKLAEQTREFKKLPDDAEKFAAIKVLLKAYQAEIDALTRRSKMSETSFLNVYKLLADAPDPYPLLDAAVDQTVKVAEARMLESELVRLREENGELKKSLGEASNLEEKRKKAESKVEQLEEKMDDLIQERVTQKENELNAEYDERMRNYEEREKDLQRQVEMVKKQLRDLHMSNESAEAKLLNANQRQEQDVAARLAELDMVAADLARANERVATVERRNEILRSEIESVRSGSQQADKVKGLEAQISELEAEASRILAALDAAKDAKAEADRQFKKQAEESTKEITARTTEVDGLKAKVKAMADYDEIKRELEIMKYVEFSGADFGDDDGEEPRLPDPNASVANKQRGQSLEKLLTSKNRRLLEDLTKLRVSWEDLSSEHAKAEEMIEGLQVDLALQRELVEKLEGDLMVLNNREDRAGTPGQGLAGLDIGNKPDGRASPANSGSQDTSILPIVTSQRDRFRQRNAELEDELRKQFETISDLRTEVKSLQTDNLKLYEKVRYMGSYRDSSFAKAGPSGGAYSSGGGSGGLLTGVLGRRDEEIGKYKDKYDESLNPFEAFKGREAQRAIQALNPVERGVFSLTRAIVGNKRARNLFILYAGSLHILILFILWNTMAASDSTSHPPVTIQP
B4: Threonine aldolase (protein, UniProt J9VK75 1-458)
chain: MVRAACFKYASLPVRISTPIIFPTRTLATTAPIAMPIASSKSLADVTPDVGGQANVDQLHRVSRDFRSDTITIPTDAQLLCSLRATRGDDVYGEDTSTTALEKRIAKLTGKEAAMFAVSGTMTNQLAIRTHMKQPPHSVITDWRAHVHKMEAGGIAMFSQATTHQLVPENGLHLTVEDIEPALQLGTNIHIAPTKLICLENTLSGMIFPQEEIVKIGEMARKHDIGMHLDGARIWNVAADVIAKRGLNPNKEEDLQTVLTELIAPFDSASLCLSKGLGAPIGSALVGPKEFIDRAKWFRKAFGGGIRQAGGIAASADYAITHHFPRLIKTHELASRLEQGLRELGCDILAPVDTSMVFFQPKPIGLPLDAVMARLAALPDPIIIGGQRCVVHHQISPQAIEDFIGCVAEMKKEKEENGEYKVTALGQEEKDKLSRFVSPEIKNTTSEAGLRTKAALGY
B5: PHD-type domain-containing protein (protein, UniProt J9VUG6 1-560)
chain: MANESVEGSTWGRVLICGGTDWATNGRKERSSGKAPTDLMEPHILRSLCNVKASKIITGPSANYAIVLDIHGATYLFGRPPAMVQSNGVISESTPLKISPSSVGSPKGTKWVNGAAGRSHFLLVDSKGDVWGCGNNVFGQIGVPVATVVDKLTKVTGPWVKDPEAKVVQVTAGHTFSLFLTSTGQVYASGSSEFGQLGNGKTGERLVKAGKIAYDIEVPPRLVQGFENVKIIEIASGNQHSLALDDNGYVYSWGFAGYSRLGLQDQKDRLLPTIVPSFAGNNELTRARSIACGPTSSTVIDRQNMILIAGKWKLSGDGSTGQPYTRFKHIQDVMACKVIKTSSGGCTHFIITPDPEGGVMTVGFGQGVLYGELGLGSDSAKSATKPQKIIPLSGVDMIDVVGGAFFTLFLARPNLALSDLDRYPLHINSASLCLICNTDLEQDAPLECERCDQPYHIGCLSPPLSAVPEGEWFCPECALEADAGPDEPFKPALGITIPKPANGKKGVKQDVVETAGNPKALASATNGASTPSKFVKGGKRSREEERSAQESGKKARNSMG
B6: Large subunit ribosomal protein L14 (protein, UniProt J9VMD7 1-149)
chain: MIGLKGILNVIDNTGALKVECINVLKVKTRLKSTGFATVGDEIVCVVNKARPIPANEVIKNPNASSNIQKIRKGDVRRAVVVRVKKTTQRPDGSVVRFDDSAAVLLNNKGEMLGTRIVGPVASELRKIKGGAGSGGRWEKIVMLAPKVV
B7: Endoribonuclease YSH1 (protein, UniProt J9W491 1-770)
chain: MIPRRRHFKPAPQPTVQVLQPPDEDAPSLTITMLGAGQEVGRSCCVIEHRGKKIVCDAGLHPAQPGIGALPFIDELDWSTVDAMLITHFHVDHAAALPYIMEKTNFKDGNGKVYMTHATKAIYGLTMMDTVRLNDQNPDTSGRLYDEADVQSSWQSTIAVDYHQDIVIAGGLRFTPYHAGHVLGASMFLIEIAGLMILYTGDYSREEDRHLVMAEIPPVKPDVMICESTFGVHTLPDRKEKEEQFTTLVANIVRRGGRCLMPIPSFGNGQELALLLDEYWHDHPELQNIPVYFASSLFQRGMRVYKTYVHTMNANIRSRFARRDNPFDFRFVKWLKDPQKLRENKGPCVIMSSPQFMSFGLSRDLLEEWAPDSKNGVIVTGYSIEGTMARTLLSEPDHIESLKGGNIPRRLTVKEISFGAHVDYAQNSKFIQEIGAQHVVLVHGEASQMGRLRAALRDTYAAKGQEINIHTPKNCEPLTLTFRQERMVKAIGSLAATRPEHGTSVKGLLVSKDFSYTLLSPADLHDFTGLSTSTIIQKQGVAISVDWAVVRWYLEGMYGEVEEGVVEEEKAAFTIMNGVQVVRISPTAVELRWKSSSSNDMIADSALALLLGIDGSPATAKLTASPNKHACNHSHSHSDLQPHTYPGDKSAKEVASNPEFERLRMFLEAHFGHVEGPNLRPPLPRGADGDGNDDQDGDDWLTMDVKLDNHTARIDLISMRVDSESIELQKRVETVVEMALTTVKSLSQTFLGGGLDVDMVEKVEPSESDS
B8: Thioesterase superfamily protein (protein, UniProt J9VJ33 1-291)
chain: MALRCRFSCVRDYRAATSNRAFKRSIMSHIQTVHSKPTLAVTDDDAARLQEIYAKFQDPSSHYYIAPGSFGPEHEEDHRASHVPDPAYSLDAVANAKASSPFQGSQGQRGRVDDRPWLNEDSGRKEQALEYFKQQNHDTIGVLTWPVAWGDQDSFQHVNNVQILRWVESARIRYCESWAGKLGEKTVYDMLLAKGTGIILKEVSIKYKAPITYPDTLMISNCIHSVNVERASYGHQHIIWSLKDQQVKAVSDSTIVIYDYDNLKKGVMSDQLRELLLNVAGDNKSSGEHTK
B9: U3 small nucleolar RNA-associated protein 12 (protein, UniProt J9VLP6 1-988)
chain: MVKSYMRHGPTQAFGIISSPTANSSYNGRLAYVPGWEDVLVWDTKRGEMVAMWHSTGLTSSVTYLTPAPTPYTSTSTTPVTFAVSYQDGSIRLWSYDPSTPEIEASETVTFNGHKKSVTIMTWDHDASRLASGGTEGEIVIWDRIGEVGLFRLKGHRAPITGLAFIPHPRGGHPGWLISTSRDTYLKVWDLGTQHCVQTVVVGRGEVTSLAVREEAEESITGQGEGEAEDQEEIKGRWVVVTGTGDGEAKVYTVEKSQLARGMAEDENGELPALITSVCTLPLPSSTHPISQMAWHPALPLLSLQTSDRGVAILRLRTEEEVSAKRARRKKRDREKKKKGKGDKQKEEDKEEDETDEPVKWEERVAVWCMVRANAKVKSFAFANENVVSVKGGVSLLLALSNNSIESYTIPTPGSKSKLAGGTTPEPTKTHSIELPGHRQDIRTISISSDDQVIASASSGTLKLWNARTTACIRTMECGYALCSTFLPGDRHVMIGTKAGELMLYDVAASSLLKTYKAHTGPVWSVSVRPDGRGLVSGSADKDVKFWDFEMRQEGEGERVVSRLGVETVYKTKQLALVHVRTLKMTDDILSLKYSPNGRFLAIALLDSTVKIFFSDTLKFFLSLYGHKLPVLSLDISSDSKLLVTCSADKNVKIWGLDFGDCHKSIFAHDEAVMGVMFEKEAGSHNFWTVGKDRMVKYWDGDKFELIQKLSGHHGEIWALSTSQSGQFVVTGSHDKSIRIWEKTDEPLFLEEEREKEIEAMYDSNLADTLNREPGEGEGEGDETEAVQKQTAETLVAGEKIMEAIELADADRAATHQWEEDNAKSKVEIPRPPRNAELIARGDLEPDEYVLKVVQKIPAAQMEDALLVLPFRMVVSLMGYLDEWAMQGKEIILVSRILFFLLRTHSSQIVSNRIMRTPLLTLRHHLRDALAQQRDVMGYNLAALKFLKGRWEGERVAGLYEQEGLDEEAVRKRLEEGRGKRKRIEVRA
B10: Omega-6 fatty acid desaturase (Delta-12 desaturase) (protein, UniProt J9VTF7 1-448)
chain: MTSTLRQRAVTPPAGQVEKDQLLREAEEKEISQGQQFIVPNFTIKQLLDAIPAHCYKRSALRSSLYVVQDAVIIAALVYGAFHIDSFLGRFSLSPVAYYAAKFALWSAYWFITGLFGTGIWVIAHEAGHQAYSSSKAINNAVGWVLHSALLVPYHSWRISHGRHHAATGHLTRDEVFVPRTRKQLGYPEVEEEGEILGINVSKERQNQLREALEDSPIVVCYNLFLQQLFGWPMYLIRNASGQLHYPEKTNHFSPHSFIFKANQYWQIVWSDIGIVLVFAALTFWASQRGIKEVATIYGIPYLWVNHWLVFITFLQHTDPILPHYSANKWTFPRGALATIDRDFLGPVGAYVFHGITETHVAHHISSKIPHYNAWEATEALKKFLGPAYHKSDENMFVSCYKCYRDCLFVEDGQDIVFYKNASGLAQRVPVEENGNISDSGIDMAEPK
B11: Septin ring protein CDC10 (protein, UniProt J9VMT9 1-322)
chain: MASLVSPAPEEIAAASYVGFDSITRQIEHKLLKRGFQFNVMVVGQTGLGKSTLINTLFASHLIESKGRFEPDVLPRQTTEIAAQSHVIVENGVRLKLNIIDTPGYGDNVNNEGCWDPIIKYIKDQHSAYLRKELTAMRDRFIPDTRIHCCLFFINPTGHTLKPIDIVVLKKLTEVVNVVPVIAKSDSLTLEERSLFKQRILAEMHHNQIRMFPFDSDELDEEELRANERVREMLPFAIVGSERSVIIDGKPVRGRKNRWGVINVEDERHCEFVYLRNFLTRTHLQDLIETTAQVHYETFRSKQLLALKESSAKAQQASASTA

Target: T1, Cdc3-mCherry (C. neoformans)
Test: affinity purification with mass spectrometry; mCherry-tagged septin captured from C. neoformans lysate on RFP-Trap agarose, 4 h at 4°C, washed with TBS with 2 M urea pH 7.5; GeLC-MS/MS; untagged H99 as negative control; hits logFC >2 and adjusted p <0.001 (text-named hits <0.05); exponential cultures at ~25°C or shifted to 37°C for 2 h; N = 5

Binder | binding
B1 | binds
B2 | binds
B3 | binds
B4 | binds
B5 | binds
B6 | binds
B7 | binds
B8 | binds
B9 | binds
B10 | binds
B11 | binds

Results are given in words; binding and its absence hold for the method and conditions named. Binding seen in cells or lysates may run through a third protein. A yes stands for co-enrichment or nearness to the bait. Other partners may have been found.
